Results from article PMC11629678.
No constants are given. Whether binding was seen depends on the method and setting. In cells and extracts the contact can be indirect. Some entries that bind do so weakly or less than the wild type.

Chains of the proteins cited; added tags and fusions are not shown. Lines headed by an entry give the natural chain unless they say otherwise; changes in a name come on top. Residues count along the entry.
UniProt P02042: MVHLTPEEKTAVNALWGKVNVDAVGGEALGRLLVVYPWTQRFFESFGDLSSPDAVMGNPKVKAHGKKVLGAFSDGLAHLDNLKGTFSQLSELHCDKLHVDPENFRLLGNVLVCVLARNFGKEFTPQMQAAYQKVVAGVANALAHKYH
UniProt P05556: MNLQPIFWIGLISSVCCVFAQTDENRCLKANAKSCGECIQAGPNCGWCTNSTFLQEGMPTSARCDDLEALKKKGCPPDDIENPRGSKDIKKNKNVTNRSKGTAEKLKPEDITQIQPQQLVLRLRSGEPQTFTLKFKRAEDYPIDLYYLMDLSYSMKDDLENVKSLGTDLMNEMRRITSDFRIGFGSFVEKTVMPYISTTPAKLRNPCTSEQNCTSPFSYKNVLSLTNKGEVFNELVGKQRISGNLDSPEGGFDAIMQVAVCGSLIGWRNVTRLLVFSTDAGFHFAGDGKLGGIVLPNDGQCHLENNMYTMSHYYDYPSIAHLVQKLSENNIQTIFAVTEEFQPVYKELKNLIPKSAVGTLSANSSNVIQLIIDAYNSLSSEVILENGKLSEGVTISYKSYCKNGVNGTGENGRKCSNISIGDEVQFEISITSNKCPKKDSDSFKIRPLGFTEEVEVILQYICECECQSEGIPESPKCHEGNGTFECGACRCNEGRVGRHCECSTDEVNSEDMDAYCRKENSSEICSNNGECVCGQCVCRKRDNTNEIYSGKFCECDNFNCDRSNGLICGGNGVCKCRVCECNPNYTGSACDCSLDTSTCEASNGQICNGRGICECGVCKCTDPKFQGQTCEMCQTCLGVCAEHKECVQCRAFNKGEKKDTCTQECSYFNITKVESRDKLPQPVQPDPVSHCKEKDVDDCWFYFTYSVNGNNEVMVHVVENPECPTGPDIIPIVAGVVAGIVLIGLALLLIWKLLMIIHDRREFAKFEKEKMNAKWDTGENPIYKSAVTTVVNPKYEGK
UniProt Q13349, residues 18-1161: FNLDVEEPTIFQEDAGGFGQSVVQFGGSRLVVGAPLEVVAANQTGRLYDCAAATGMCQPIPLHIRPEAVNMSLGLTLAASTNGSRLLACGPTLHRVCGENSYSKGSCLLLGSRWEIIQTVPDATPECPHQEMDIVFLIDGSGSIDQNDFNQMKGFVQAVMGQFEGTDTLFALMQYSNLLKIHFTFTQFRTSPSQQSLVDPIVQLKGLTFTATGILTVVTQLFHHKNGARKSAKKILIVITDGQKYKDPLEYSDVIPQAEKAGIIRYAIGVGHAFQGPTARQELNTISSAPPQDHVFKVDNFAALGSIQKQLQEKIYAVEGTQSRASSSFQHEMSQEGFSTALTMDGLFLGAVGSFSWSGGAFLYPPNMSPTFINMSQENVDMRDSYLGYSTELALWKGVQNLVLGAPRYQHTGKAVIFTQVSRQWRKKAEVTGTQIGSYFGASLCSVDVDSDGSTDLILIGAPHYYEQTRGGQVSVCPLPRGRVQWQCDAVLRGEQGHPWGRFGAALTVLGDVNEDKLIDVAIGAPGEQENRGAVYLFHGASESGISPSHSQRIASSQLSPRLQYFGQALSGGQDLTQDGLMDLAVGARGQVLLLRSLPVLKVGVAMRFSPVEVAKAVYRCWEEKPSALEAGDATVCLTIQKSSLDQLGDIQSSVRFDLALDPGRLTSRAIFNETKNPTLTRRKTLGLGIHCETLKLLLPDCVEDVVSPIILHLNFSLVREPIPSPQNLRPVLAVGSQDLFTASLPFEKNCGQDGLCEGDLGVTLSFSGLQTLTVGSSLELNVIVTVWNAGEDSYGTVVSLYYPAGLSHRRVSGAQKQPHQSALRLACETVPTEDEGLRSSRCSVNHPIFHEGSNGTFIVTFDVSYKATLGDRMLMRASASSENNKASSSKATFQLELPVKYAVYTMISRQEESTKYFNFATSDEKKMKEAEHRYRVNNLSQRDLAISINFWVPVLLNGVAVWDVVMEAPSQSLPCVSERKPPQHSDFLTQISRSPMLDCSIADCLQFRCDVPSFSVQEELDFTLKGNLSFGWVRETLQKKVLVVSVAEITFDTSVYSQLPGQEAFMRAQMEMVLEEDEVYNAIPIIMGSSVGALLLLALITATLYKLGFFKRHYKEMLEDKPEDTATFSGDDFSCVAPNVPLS

Experiments:
[1] = target: hemoglobin δ (human (endogenous in Colo205)) (UniProt P02042); experiment: co-IP; Hb antibody (Thermo Fisher Scientific) on protein G Sepharose, 45 min at RT; lysates of Colo205 cells grown under hypoxia; blot with αD antibody
[2] = target: hemoglobin δ (human (endogenous in Colo205)) (UniProt P02042); experiment: co-IP; Hb antibody (Thermo Fisher Scientific) on protein G Sepharose, 45 min at RT; lysates of Colo205 cells grown under normoxia; blot with αD antibody
[3] = target: integrin β1 chain (human (endogenous in Colo205)) (UniProt P05556); experiment: co-IP; integrin β1 antibodies (Santa Cruz and BD Biosciences) on protein G Sepharose, overnight at 4°C; RIPA lysates of Colo205 cells grown under hypoxia; blot with integrin αD antibody

integrin αD polypeptide (from UniProt Q13349 18-1161) (receptor)
binding [1]: binds
binding [2]: no binding (condition: cells grown under normoxia)
binding [3]: binds
